{
  "sequences": {"note": "Amino acid sequences for entries named in this document (tags omitted). Residues count along the entry.", "UniProt Q64339, residues 1-155": "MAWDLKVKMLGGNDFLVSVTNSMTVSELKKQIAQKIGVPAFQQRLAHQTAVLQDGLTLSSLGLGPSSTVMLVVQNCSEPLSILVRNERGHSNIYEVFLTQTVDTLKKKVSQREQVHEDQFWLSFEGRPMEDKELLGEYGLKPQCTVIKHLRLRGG", "UniProt P05161, residues 1-157": "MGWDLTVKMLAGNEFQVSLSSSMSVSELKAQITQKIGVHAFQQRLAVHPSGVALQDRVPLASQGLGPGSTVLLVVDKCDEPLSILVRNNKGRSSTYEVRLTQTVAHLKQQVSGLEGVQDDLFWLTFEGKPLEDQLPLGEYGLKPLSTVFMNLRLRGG"},
  "source": "paper PMC12406269",
  "key": {"His-mISG15 (mouse)": {"molecular_target": "His-mISG15 (mouse) (UniProt Q64339)", "assay": "SEC; VHH and ISG15 mixed at the indicated molar ratios (1:2, 1:1 or 1:1:1) at 20 μM in 500 μl TBS, 20 min at room temperature; Superdex 75 10/300, fractions on SDS-PAGE; both purified"}, "[1]": {"molecular_target": "human ISG15 (1-157)-SBP-His (human) (UniProt P05161)", "assay": "condition: only ISG15 denatured (reducing SDS-PAGE, immunoblot); 1 μg/ml VHH; far-Western, overlay or dot blot; immunoblot: recombinant proteins resolved by reducing SDS-PAGE on nitrocellulose, probed with 1 μg/ml HA-tagged VHH, detected with anti-HA HRP; both purified"}},
  "note": "Results are given in words; binding and its absence hold for the method and conditions named. Where a sequence is shown, tags or fusion partners need not be part of it.",
  "data": [
    {"binder": "VHH_(ISG15-B)-HA-His (VHH) VHH: QVQLVETGGGLVEPGGSLRLSCTVSGINFSSQFMAWFRQGPGKQREWVAIDAGEENVGYLDLVEGRFTISRDTARNTLYLQMNSLKPEDTAVYYCNIFPVLPDSRWGQGTQVTVSS", "values": [
      {"measurement": "binding", "setting": "His-mISG15 (mouse)", "value": "no binding (tested: 20 μM)"},
      {"measurement": "binding", "setting": "[1]", "value": "no binding"}
    ]}
  ]
}
